Reference: PubChem BioAssay AID743121 (NCATS, 2013)
The deposit covers about 26,000 reagents; below is a random part of them. 167 of them (0.63%) count as active. 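Calls are per gene from RSA p-values that are not deposited; an individual active-marked siRNA can sensitise only weakly.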 A number with no mark means an inactive call. Reagents against one gene are numbered here. Further read-outs or replicates are left out here.

Aim: 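Partners whose loss is lethal together with topoisomerase I blockade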 (primary screen)
Cells: MDA-MB-231 cells, a human breast cancer line
Reagent: single siRNA against human genes, 20 nM siRNA (0.8 pmol per well)
Timing: 120 h (drug added 48 h after transfection, read 72 h later)
Conditions: camptothecin 20 nM (about EC30) for 72 h; vehicle 0.1% DMSO in parallel plates
Read-out: 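CellTiter-Glo ATP signal, scaled to control siRNA as percent viability; sensitisation given as log2 of untreated divided by camptothecin-treated viability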
Scale: log2 vehicle/camptothecin viability: higher = stronger sensitisation to camptothecin
Hit rule: 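Each gene scored by redundant siRNA activity (RSA) over its individual siRNA ratios; a gene is called active at p < 0.001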

SERPINA13P (serpin family A member 13, pseudogene) #1: log2 vehicle/camptothecin viability = -0.245
SERPINA13P (serpin family A member 13, pseudogene) #2: log2 vehicle/camptothecin viability = -0.257
SERPINA13P (serpin family A member 13, pseudogene) #3: log2 vehicle/camptothecin viability = -0.463
SERPINA13P (serpin family A member 13, pseudogene) #4: log2 vehicle/camptothecin viability = -0.294
RNF38 (ring finger protein 38) #1: log2 vehicle/camptothecin viability = 0.319
RNF38 (ring finger protein 38) #2: log2 vehicle/camptothecin viability = 0.0644
RNF38 (ring finger protein 38) #3: log2 vehicle/camptothecin viability = 0.117
RNF38 (ring finger protein 38) #4: log2 vehicle/camptothecin viability = 0.218
COQ9 (coenzyme Q9) #1: log2 vehicle/camptothecin viability = -0.276
COQ9 (coenzyme Q9) #2: log2 vehicle/camptothecin viability = -0.109
COQ9 (coenzyme Q9) #3: log2 vehicle/camptothecin viability = 0.149
COQ9 (coenzyme Q9) #4: log2 vehicle/camptothecin viability = -0.0237
LBR (lamin B receptor) #1: log2 vehicle/camptothecin viability = -0.234
LBR (lamin B receptor) #2: log2 vehicle/camptothecin viability = -0.56
LBR (lamin B receptor) #3: log2 vehicle/camptothecin viability = -0.134

2 entries from above in another layout:
Target gene	reagent no.	log2 vehicle/camptothecin viability
COQ9 (coenzyme Q9)	1	-0.276
COQ9 (coenzyme Q9)	2	-0.109

The listing continues:
LGR4 (leucine rich repeat containing G protein-coupled receptor 4) #1: log2 vehicle/camptothecin viability = -0.142
LGR4 (leucine rich repeat containing G protein-coupled receptor 4) #2: log2 vehicle/camptothecin viability = 0.133
LGR4 (leucine rich repeat containing G protein-coupled receptor 4) #3: log2 vehicle/camptothecin viability = -0.0247
LGR4 (leucine rich repeat containing G protein-coupled receptor 4) #4: log2 vehicle/camptothecin viability = -0.234
SLC4A8 #1: log2 vehicle/camptothecin viability = -0.384
SLC4A8 #2: log2 vehicle/camptothecin viability = -0.0457
SLC4A8 #3: log2 vehicle/camptothecin viability = 0.00398
SLC4A8 #4: log2 vehicle/camptothecin viability = -0.065
UBXN1 (UBX domain protein 1) #1: log2 vehicle/camptothecin viability = -0.108
UBXN1 (UBX domain protein 1) #2: log2 vehicle/camptothecin viability = -0.175
UBXN1 (UBX domain protein 1) #3: log2 vehicle/camptothecin viability = 0.438
UBXN1 (UBX domain protein 1) #4: log2 vehicle/camptothecin viability = 0.569
ERBIN (erbb2 interacting protein) #1: log2 vehicle/camptothecin viability = 0.0318
ERBIN (erbb2 interacting protein) #2: log2 vehicle/camptothecin viability = 0.374
ERBIN (erbb2 interacting protein) #3: log2 vehicle/camptothecin viability = -0.0931
KCNT1 (potassium sodium-activated channel subfamily T member 1) #1: log2 vehicle/camptothecin viability = 0.0689
KCNT1 (potassium sodium-activated channel subfamily T member 1) #2: log2 vehicle/camptothecin viability = -0.415
KCNT1 (potassium sodium-activated channel subfamily T member 1) #3: log2 vehicle/camptothecin viability = 0.216
ABCB8 (ATP binding cassette subfamily B member 8) #1: log2 vehicle/camptothecin viability = 0.204
ABCB8 (ATP binding cassette subfamily B member 8) #2: log2 vehicle/camptothecin viability = -0.512
ABCB8 (ATP binding cassette subfamily B member 8) #3: log2 vehicle/camptothecin viability = 0.0688
ABCB8 (ATP binding cassette subfamily B member 8) #4: log2 vehicle/camptothecin viability = -0.1
